Source: paper PMC4858180
These are yes or no findings as the source states them, for the method shown. Binding seen in cells or lysates may run through a third protein. Some results given as binding are weak or reduced against the parent protein; the word gives no strength. Where a sequence is shown, tags or fusion partners need not be part of it. Blank lines part the entries; values can stand above or below the molecule they belong to.

Chains of the proteins cited; added tags and fusions are not shown. Residues count along the entry.
UniProt Q8K4G1, residues 25-1666: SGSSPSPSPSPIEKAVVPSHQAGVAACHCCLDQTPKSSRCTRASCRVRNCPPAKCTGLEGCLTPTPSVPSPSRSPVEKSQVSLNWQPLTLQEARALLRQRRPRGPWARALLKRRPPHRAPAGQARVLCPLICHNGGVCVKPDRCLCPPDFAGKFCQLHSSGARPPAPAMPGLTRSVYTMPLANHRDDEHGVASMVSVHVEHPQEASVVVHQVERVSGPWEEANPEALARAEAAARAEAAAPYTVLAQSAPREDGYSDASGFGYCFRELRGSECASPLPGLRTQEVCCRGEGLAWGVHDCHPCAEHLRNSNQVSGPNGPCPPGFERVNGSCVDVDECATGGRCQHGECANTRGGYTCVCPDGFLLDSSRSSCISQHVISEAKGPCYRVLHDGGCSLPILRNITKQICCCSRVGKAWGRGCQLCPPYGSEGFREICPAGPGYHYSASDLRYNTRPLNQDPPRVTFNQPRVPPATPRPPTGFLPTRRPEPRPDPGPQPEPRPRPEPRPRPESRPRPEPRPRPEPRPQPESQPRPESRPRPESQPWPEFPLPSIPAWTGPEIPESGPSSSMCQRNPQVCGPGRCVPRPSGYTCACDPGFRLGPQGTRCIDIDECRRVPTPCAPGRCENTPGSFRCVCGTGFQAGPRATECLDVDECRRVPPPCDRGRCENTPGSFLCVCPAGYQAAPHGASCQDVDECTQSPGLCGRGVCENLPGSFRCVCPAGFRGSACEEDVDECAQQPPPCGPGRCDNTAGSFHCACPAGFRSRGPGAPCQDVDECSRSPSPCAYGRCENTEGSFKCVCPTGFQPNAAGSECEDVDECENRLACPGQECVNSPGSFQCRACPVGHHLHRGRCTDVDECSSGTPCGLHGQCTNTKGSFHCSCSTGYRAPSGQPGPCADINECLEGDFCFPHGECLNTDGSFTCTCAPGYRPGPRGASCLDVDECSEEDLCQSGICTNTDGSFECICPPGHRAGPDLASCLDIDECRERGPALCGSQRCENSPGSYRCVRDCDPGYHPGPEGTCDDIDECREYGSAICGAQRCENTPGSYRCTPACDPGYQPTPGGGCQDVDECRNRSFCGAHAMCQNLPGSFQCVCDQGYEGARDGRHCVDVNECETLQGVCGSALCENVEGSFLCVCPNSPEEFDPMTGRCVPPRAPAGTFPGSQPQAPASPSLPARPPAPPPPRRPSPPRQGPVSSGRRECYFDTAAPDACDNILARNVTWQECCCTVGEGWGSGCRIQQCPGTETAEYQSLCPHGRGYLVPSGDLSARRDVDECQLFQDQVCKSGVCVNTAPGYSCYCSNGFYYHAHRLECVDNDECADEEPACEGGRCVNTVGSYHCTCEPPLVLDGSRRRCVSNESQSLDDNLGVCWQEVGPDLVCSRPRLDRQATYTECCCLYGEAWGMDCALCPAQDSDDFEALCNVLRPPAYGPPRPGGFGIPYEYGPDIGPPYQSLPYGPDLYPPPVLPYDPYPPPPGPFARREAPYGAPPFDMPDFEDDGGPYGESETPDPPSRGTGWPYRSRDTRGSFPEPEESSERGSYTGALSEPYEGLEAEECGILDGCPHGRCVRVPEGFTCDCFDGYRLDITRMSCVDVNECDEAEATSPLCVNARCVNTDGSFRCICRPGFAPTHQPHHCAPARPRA
UniProt P04202, residues 30-390: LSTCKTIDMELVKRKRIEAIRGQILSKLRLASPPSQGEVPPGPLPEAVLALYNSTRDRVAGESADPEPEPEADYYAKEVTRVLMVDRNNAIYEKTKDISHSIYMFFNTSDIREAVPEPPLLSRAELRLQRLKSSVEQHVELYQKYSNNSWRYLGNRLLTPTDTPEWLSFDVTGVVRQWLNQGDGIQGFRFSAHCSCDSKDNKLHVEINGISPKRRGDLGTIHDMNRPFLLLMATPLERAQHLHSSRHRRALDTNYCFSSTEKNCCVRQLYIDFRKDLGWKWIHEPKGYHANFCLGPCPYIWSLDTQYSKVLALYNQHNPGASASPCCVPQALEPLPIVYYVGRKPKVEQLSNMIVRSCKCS

Molecular target: mouse LTBP4-L (long isoform) with carboxy-terminal Xpress tag, expressed in HEK293T (mouse) (UniProt Q8K4G1)
Experiment: co-IP; lysates of co-transfected HEK293T cells (150 mM NaCl, 50 mM Tris HCl pH 8, 0.1% Triton X-100), 500 μg lysate; immunoprecipitated with anti-LTBP4 antibody, immunoblotted with anti-myc; control without precipitating antibody; 4°C

binding: binds
Molecule: mouse TGFβ1, myc-DDK tagged (from UniProt P04202 30-390)

binding: binds
B1: mouse TGFβ3, myc-DDK tagged (protein, UniProt P17125 24-410)
chain: TCTTLDFGHIKKKRVEAIRGQILSKLRLTSPPEPSVMTHVPYQVLALYNSTRELLEEMHGEREEGCTQETSESEYYAKEIHKFDMIQGLAEHNELAVCPKGITSKVFRFNVSSVEKNGTNLFRAEFRVLRVPNPSSKRTEQRIELFQILRPDEHIAKQRYIGGKNLPTRGTAEWLSFDVTDTVREWLLRRESNLGLEISIHCPCHTFQPNGDILENVHEVMEIKFKGVDNEDDHGRGDLGRLKKQKDHHNPHLILMMIPPHRLDSPGQGSQRKKRALDTNYCFRNLEENCCVRPLYIDFRQDLGWKWVHEPKGYYANFCSGPCPYLRSADTTHSTVLGLYNTLNPEASASPCCVPQDLEPLTILYYVGRTPKVEQLSNMVVKSCKCS

binding: binds
B2: mouse TGFβ2, myc-DDK tagged (protein, UniProt P27090 21-414)
chain: LSTCSTLDMDQFMRKRIEAIRGQILSKLKLTSPPEDYPEPDEVPPEVISIYNSTRDLLQEKASRRAAACERERSDEEYYAKEVYKIDMPSHLPSENAIPPTFYRPYFRIVRFDVSTMEKNASNLVKAEFRVFRLQNPKARVAEQRIELYQILKSKDLTSPTQRYIDSKVVKTRAEGEWLSFDVTDAVQEWLHHKDRNLGFKISLHCPCCTFVPSNNYIIPNKSEELEARFAGIDGTSTYASGDQKTIKSTRKKTSGKTPHLLLMLLPSYRLESQQSSRRKKRALDAAYCFRNVQDNCCLRPLYIDFKRDLGWKWIHEPKGYNANFCAGACPYLWSSDTQHTKVLSLYNTINPEASASPCCVSQDLEPLTILYYIGNTPKIEQLSNMIVKSCKCS
